Assay results published in patent US20090196876A1.
These are yes or no findings as the source states them, for the method shown. Some entries that bind do so weakly or less than the wild type. Tags and fused reporters may be left off the sequences shown.

By UniProt entry, the sequences of proteins in these tests, tags left out. Residues count along the entry.
UniProt P01579, residues 24-166: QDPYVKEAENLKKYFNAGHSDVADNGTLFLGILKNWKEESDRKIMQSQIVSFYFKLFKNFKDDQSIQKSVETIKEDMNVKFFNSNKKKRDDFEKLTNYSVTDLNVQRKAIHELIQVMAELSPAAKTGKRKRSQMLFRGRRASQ

Molecular target: T1, UNQ1900-ECD-Fc (human) (UniProt Q6UXG8)
T1 sequence: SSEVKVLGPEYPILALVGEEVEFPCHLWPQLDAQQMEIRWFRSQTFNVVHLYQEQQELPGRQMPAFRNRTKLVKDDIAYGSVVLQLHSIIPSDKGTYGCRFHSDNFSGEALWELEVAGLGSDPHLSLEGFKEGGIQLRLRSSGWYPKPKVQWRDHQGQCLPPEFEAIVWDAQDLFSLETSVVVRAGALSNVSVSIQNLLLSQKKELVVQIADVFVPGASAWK
Test: BiaCore; UNQ1900-ECD-Fc coated on chip, 275 proteins tested as analytes

With “INF-gamma (from UniProt P01579 24-166) (ligand)” as the substance, how does the binding read?
The binding was “binds”.
